# From the supplement of paper PMC12819154, “High-throughput peptide-centric local stability assay extends protein–ligand identification to membrane proteins, tissues and bacteria” (Nature Structural & Molecular Biology, 2025)
# Amino acid sequences for entries named in this document (tags omitted). A change or cut given only in a name is not applied to a line headed by its entry.
# UniProt P0AAR8: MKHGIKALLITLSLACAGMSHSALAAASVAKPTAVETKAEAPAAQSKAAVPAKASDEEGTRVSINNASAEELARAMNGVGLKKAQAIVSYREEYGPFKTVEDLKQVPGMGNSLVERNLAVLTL
# The entries are a selection whose mix differs from that of the whole data set. Most entries show no effect beyond the scatter of the controls.
# Key:
# Experiment in all cases: log2 fold change of tryptic peptide abundance, ligand vs vehicle (limited proteolysis) (log2 ratio); higher = more trypsin-susceptible (destabilized)
# [1] = target: T1, UniProt P0A908; settings: peptide sequence: DSGDHQMR; peptide start residue: 93; ligand concentration: 5 mM; sample: E. coli desalted lysate; replicate design: treated before aliquoting
# T1 sequence (whole entry): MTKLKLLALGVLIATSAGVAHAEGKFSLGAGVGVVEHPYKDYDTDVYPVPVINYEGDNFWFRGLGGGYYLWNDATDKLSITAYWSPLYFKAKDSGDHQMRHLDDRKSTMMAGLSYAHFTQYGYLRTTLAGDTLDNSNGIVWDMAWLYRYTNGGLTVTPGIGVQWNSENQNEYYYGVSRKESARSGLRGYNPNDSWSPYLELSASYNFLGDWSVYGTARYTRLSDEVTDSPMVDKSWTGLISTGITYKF
# Procedure: (§1)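 HT-PELSA: desalted E. coli K-12 BW25113 lysate (with 12 mM MgCl2) incubated with 5 mM ATP (pH 7) or water for 30 min at 25 C, then a 4 min trypsin pulse at 22 C. Peptides were quantified by DIA-MS (4 replicates). Value is the peptide log2 fold change (treated/control); negative = stabilized. Scale: negative = ligand-stabilized region.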
# [2] = target: T2, UniProt P0A915; settings: peptide sequence: LGGAQQHDSVR; peptide start residue: 188; ligand concentration: 5 mM; sample: E. coli desalted lysate; replicate design: treated before aliquoting
# T2 sequence (whole entry): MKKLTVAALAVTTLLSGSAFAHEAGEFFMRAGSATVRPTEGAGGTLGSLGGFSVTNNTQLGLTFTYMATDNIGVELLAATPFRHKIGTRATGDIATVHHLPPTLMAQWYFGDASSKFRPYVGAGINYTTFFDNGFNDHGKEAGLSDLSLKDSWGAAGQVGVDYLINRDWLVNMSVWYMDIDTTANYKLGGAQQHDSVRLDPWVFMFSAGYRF
# Procedure: as §1
# [3] = target: T3, UniProt P0A9C3; settings: peptide sequence: IPLSDGSVR; peptide start residue: 42; ligand concentration: 5 mM; sample: E. coli desalted lysate; replicate design: treated before aliquoting
# T3 sequence (whole entry): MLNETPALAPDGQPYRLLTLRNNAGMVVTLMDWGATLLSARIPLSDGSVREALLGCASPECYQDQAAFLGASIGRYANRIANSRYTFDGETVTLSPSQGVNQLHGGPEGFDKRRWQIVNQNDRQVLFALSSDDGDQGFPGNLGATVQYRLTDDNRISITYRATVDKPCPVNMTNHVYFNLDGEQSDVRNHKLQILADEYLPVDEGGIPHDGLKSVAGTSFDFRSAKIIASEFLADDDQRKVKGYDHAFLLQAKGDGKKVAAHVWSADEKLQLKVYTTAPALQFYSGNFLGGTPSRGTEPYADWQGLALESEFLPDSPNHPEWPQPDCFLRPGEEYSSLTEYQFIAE
# Procedure: as §1
# [4] = target: T4, UniProt P0A9G4; settings: peptide sequence: HIEELQSMR; peptide start residue: 94; ligand concentration: 5 mM; sample: E. coli desalted lysate; replicate design: treated before aliquoting
# T4 sequence (whole entry): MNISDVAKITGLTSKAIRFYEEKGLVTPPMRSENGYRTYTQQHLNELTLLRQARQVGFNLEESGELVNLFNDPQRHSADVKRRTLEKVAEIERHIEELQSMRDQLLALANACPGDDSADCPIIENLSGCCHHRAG
# Procedure: as §1
# [5] = target: T5, UniProt P0A9V8; settings: peptide sequence: VFDVNAEAVR; peptide start residue: 29; ligand concentration: 5 mM; sample: E. coli desalted lysate; replicate design: treated before aliquoting
# T5 sequence (whole entry): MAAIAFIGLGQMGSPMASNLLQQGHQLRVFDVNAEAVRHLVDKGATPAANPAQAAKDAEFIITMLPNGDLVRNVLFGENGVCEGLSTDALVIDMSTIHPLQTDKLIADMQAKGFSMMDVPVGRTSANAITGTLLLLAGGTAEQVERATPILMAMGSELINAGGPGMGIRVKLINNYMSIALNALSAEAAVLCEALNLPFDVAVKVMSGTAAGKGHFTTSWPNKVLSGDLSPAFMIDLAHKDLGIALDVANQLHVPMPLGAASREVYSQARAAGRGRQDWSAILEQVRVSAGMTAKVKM
# Procedure: as §1
# [6] = target: T6, UniProt P0A9W9; settings: peptide sequence: GDVHYVQIGAR; peptide start residue: 47; ligand concentration: 5 mM; sample: E. coli desalted lysate; replicate design: treated before aliquoting
# T6 sequence (whole entry): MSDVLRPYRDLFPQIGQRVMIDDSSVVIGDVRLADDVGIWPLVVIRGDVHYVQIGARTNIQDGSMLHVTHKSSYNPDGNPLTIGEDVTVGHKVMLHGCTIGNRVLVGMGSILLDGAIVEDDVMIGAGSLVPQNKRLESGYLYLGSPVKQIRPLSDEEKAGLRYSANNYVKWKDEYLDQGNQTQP
# Procedure: as §1
# [7] = target: T7, UniProt P0AA80; settings: peptide sequence: FISENGAVVDMDHK; peptide start residue: 215; ligand concentration: 5 mM; sample: E. coli desalted lysate; replicate design: treated before aliquoting
# T7 sequence (whole entry): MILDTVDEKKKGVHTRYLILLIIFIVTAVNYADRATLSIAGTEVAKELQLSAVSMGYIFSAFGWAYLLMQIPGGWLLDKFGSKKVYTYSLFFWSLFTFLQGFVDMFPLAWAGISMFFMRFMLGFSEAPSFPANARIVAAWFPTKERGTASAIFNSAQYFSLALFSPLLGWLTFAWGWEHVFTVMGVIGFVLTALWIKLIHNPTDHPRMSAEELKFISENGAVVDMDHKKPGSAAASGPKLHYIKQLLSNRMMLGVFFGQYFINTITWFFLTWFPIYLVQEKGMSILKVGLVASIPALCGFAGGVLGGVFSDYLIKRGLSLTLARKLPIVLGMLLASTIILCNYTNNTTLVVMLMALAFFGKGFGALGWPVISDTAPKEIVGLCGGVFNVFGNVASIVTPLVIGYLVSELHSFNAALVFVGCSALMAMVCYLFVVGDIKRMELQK
# Procedure: as §1
# [8] = target: T8, UniProt P0AAC8; settings: peptide sequence: EGLNEGFK; peptide start residue: 82; ligand concentration: 5 mM; sample: E. coli desalted lysate; replicate design: treated before aliquoting
# T8 sequence (whole entry): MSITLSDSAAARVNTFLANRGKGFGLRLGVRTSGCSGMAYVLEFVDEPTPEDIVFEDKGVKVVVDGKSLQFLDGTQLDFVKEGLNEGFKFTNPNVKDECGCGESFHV
# Procedure: as §1
# [9] = target: T9, UniProt P0AAJ3; settings: peptide sequence: VYKCTLCVDR; peptide start residue: 157; ligand concentration: 5 mM; sample: E. coli desalted lysate; replicate design: treated before aliquoting
# T9 sequence (whole entry): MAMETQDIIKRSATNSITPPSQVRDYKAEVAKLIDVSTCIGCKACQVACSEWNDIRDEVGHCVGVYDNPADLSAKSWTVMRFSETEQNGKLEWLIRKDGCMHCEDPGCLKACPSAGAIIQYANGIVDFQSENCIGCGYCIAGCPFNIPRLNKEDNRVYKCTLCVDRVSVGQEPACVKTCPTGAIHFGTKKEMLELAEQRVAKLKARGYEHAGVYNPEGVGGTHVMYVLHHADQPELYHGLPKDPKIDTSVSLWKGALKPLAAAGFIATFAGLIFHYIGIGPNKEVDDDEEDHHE
# Procedure: as §1
# [10] = target: T10, UniProt P0AAK1; settings: peptide sequence: APPAPPAPAR; peptide start residue: 116; ligand concentration: 5 mM; sample: E. coli desalted lysate; replicate design: treated before aliquoting
# T10 sequence (whole entry): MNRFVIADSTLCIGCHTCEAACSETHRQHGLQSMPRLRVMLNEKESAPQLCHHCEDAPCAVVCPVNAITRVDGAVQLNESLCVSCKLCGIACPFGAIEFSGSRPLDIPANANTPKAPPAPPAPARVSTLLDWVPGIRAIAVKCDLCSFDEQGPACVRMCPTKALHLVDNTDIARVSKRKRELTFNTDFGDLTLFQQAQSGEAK
# Procedure: as §1
# [11] = target: UniProt P0AAR8; settings: peptide sequence: QVPGMGNSLVER; peptide start residue: 105; ligand concentration: 5 mM; sample: E. coli desalted lysate; replicate design: treated before aliquoting
# Procedure: as §1
# [12] = target: T11, UniProt P0AAS3; settings: peptide sequence: HSDSHLNQR; peptide start residue: 84; ligand concentration: 5 mM; sample: E. coli desalted lysate; replicate design: treated before aliquoting
# T11 sequence (whole entry): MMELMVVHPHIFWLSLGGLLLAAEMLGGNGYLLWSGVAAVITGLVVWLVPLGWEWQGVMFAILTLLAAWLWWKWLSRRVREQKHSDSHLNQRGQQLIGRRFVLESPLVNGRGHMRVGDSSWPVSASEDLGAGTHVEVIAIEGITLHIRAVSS
# Procedure: as §1
# [13] = target: T12, UniProt P0AAV6; settings: peptide sequence: NTMCKDGR; peptide start residue: 92; ligand concentration: 5 mM; sample: E. coli desalted lysate; replicate design: treated before aliquoting
# T12 sequence (whole entry): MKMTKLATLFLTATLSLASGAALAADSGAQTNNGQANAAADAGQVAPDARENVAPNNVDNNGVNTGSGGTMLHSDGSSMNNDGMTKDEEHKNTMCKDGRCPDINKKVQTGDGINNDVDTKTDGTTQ
# Procedure: as §1
# [14] = target: T13, UniProt P0AB24; settings: peptide sequence: EDDYEQK; peptide start residue: 201; ligand concentration: 5 mM; sample: E. coli desalted lysate; replicate design: treated before aliquoting
# T13 sequence (whole entry): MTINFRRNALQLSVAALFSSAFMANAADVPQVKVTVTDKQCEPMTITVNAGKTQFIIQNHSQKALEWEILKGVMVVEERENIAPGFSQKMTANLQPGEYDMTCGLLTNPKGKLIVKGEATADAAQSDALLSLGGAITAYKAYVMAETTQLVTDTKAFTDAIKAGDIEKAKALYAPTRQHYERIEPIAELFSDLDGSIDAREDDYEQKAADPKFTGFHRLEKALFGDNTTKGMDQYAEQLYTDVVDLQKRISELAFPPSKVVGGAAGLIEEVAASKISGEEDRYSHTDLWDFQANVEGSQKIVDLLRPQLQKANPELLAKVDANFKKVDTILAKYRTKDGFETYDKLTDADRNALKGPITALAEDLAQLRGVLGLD
# Procedure: as §1
# [15] = target: T14, UniProt P0AB26; settings: peptide sequence: ALPVFDKEK; peptide start residue: 100; ligand concentration: 5 mM; sample: E. coli desalted lysate; replicate design: treated before aliquoting
# T14 sequence (whole entry): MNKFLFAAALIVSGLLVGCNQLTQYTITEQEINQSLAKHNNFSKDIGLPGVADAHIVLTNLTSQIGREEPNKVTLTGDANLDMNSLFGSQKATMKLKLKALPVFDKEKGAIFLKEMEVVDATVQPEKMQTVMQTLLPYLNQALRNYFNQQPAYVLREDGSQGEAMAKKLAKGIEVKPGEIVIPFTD
# Procedure: as §1
# 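Further: lysate desalted by size exclusion to strip endogenous ATP, peptide intensities built from DIA-NN precursor signals, and peptides missing any value discarded before comparison.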
smiles,measurement,setting,value
Nc1ncnc2c1ncn2[C@@H]1O[C@H](COP(=O)(O)OP(=O)(O)OP(=O)(O)O)[C@@H](O)[C@H]1O [adenosine 5'-triphosphate],log2 fold change,[1],-0.228
same,log2 fold change,[2],0.139
same,log2 fold change,[3],0.378
same,log2 fold change,[4],-0.282
same,log2 fold change,[5],-0.427
same,log2 fold change,[6],-0.363
same,log2 fold change,[7],0.287
same,log2 fold change,[8],-0.103
same,log2 fold change,[9],-0.414
same,log2 fold change,[10],0.0413
same,log2 fold change,[11],-0.219
same,log2 fold change,[12],-0.179
same,log2 fold change,[13],-0.271
same,log2 fold change,[14],-0.389
same,log2 fold change,[15],-0.24

# In a second layout: results already given.
smiles	measurement	setting	value
Nc1ncnc2c1ncn2[C@@H]1O[C@H](COP(=O)(O)OP(=O)(O)OP(=O)(O)O)[C@@H](O)[C@H]1O [adenosine 5'-triphosphate]	log2 fold change	[4]	-0.282
same	log2 fold change	[5]	-0.427
same	log2 fold change	[6]	-0.363
